Source: US20250051407
For part of these data: Where cells or extracts were used, other partners may take part. Tags and fusion partners may be left off the protein sequences shown. For part of these data: For at least one entry, the source does not settle the construct or the ends of the probe.

What was measured:
[1] = system: T1, DBP061 (synthetic construct); test: flow cytometry; conditions: 1 uM dsDNA with avidity; protein on the cell surface; protein details: yeast display (pETcon3, c-Myc); label: biotin
T1 sequence: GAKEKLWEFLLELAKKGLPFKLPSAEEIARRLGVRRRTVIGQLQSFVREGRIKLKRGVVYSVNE

[2] = system: T2, DBP062 (synthetic construct); test: flow cytometry; conditions: strong preference for designed target; protein on the cell surface; protein details: yeast display (pETcon3, c-Myc); label: biotin
T2 sequence: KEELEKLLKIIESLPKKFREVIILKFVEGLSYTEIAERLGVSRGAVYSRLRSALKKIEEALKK

[3] = system: T3, DBP062 purified (synthetic construct); test: BLI; conditions: range for all purified designs; PBS, 1% BSA, 0.05% Tween 20; purified recombinant protein; protein details: His tag; label: biotin
T3 sequence: T2 sequence

[4] = system: T4, DBP090 (synthetic construct); test: flow cytometry; conditions: strong binding to alternate target; protein on the cell surface; protein details: yeast display (pETcon3, c-Myc); label: biotin
T4 sequence: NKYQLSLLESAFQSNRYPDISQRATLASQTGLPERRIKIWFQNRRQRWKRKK

[5] = system: T5, DBP046 (synthetic construct); test: flow cytometry; conditions: 1 uM dsDNA with avidity; protein on the cell surface; protein details: yeast display (pETcon3, c-Myc); label: biotin
T5 sequence: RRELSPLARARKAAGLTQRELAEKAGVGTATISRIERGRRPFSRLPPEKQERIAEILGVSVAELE

[6] = system: T6, DBP080 (synthetic construct); test: flow cytometry; conditions: 1 uM dsDNA with avidity; protein on the cell surface; protein details: yeast display (pETcon3, c-Myc); label: biotin
T6 sequence: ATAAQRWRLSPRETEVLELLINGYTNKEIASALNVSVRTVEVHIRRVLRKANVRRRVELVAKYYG

[7] = system: T7, DBP071 (synthetic construct); test: flow cytometry; conditions: 1 uM dsDNA with avidity; protein on the cell surface; protein details: yeast display (pETcon3, c-Myc); label: biotin
T7 sequence: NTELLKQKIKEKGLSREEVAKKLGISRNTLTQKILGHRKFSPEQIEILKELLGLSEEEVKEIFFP

[8] = system: T8, DBP045 (synthetic construct); test: flow cytometry; conditions: 1 uM dsDNA with avidity; protein on the cell surface; protein details: yeast display (pETcon3, c-Myc); label: biotin
T8 sequence: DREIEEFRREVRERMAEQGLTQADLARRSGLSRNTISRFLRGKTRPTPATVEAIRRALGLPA

[9] = system: T9, DBP058 (synthetic construct); test: flow cytometry; conditions: 1 uM dsDNA with avidity; protein on the cell surface; protein details: yeast display (pETcon3, c-Myc); label: biotin
T9 sequence: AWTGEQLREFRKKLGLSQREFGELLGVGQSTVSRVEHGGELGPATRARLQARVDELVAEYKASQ

[10] = system: T10, DBP051 (synthetic construct); test: flow cytometry; conditions: prefers less than 3 of 13 targets; protein on the cell surface; protein details: yeast display (pETcon3, c-Myc); label: biotin
T10 sequence: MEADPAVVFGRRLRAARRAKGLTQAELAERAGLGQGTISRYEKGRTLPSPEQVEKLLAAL

[11] = system: T11, DBP052 (synthetic construct); test: flow cytometry; conditions: prefers 2-3 of 13 targets; protein on the cell surface; protein details: yeast display (pETcon3, c-Myc); label: biotin
T11 sequence: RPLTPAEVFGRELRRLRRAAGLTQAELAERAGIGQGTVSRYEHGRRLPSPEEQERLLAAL

[12] = system: T12, DBP057 (synthetic construct); test: flow cytometry; conditions: strong; site ATCCAG; protein on the cell surface; protein details: yeast display (pETcon3, c-Myc); label: biotin
T12 sequence: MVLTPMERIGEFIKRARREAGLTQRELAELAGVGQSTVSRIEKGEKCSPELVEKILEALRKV

[13] = system: T13, DBP054 (synthetic construct); test: flow cytometry; conditions: 1 uM dsDNA with avidity; protein on the cell surface; protein details: yeast display (pETcon3, c-Myc); label: biotin
T13 sequence: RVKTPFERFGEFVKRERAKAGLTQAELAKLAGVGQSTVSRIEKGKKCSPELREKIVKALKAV

[14] = system: T14, DBP059 (synthetic construct); test: flow cytometry; conditions: 1 uM dsDNA with avidity; protein on the cell surface; protein details: yeast display (pETcon3, c-Myc); label: biotin
T14 sequence: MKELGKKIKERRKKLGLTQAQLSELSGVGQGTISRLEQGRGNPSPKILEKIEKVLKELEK

[15] = system: T15, DBP056 (synthetic construct); test: flow cytometry; conditions: 1 uM dsDNA yeast display; protein on the cell surface; protein details: yeast display (pETcon3, c-Myc); label: biotin
T15 sequence: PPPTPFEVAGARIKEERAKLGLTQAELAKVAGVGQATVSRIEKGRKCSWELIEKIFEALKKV

[16] = system: T16, DBP053 (synthetic construct); test: flow cytometry; conditions: 1 uM dsDNA with avidity; protein on the cell surface; protein details: yeast display (pETcon3, c-Myc); label: biotin
T16 sequence: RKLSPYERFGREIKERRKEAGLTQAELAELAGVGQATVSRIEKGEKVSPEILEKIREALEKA

[17] = system: T17, DBP060 (synthetic construct); test: flow cytometry; conditions: prefers 2-3 of 13 targets; protein on the cell surface; protein details: yeast display (pETcon3, c-Myc); label: biotin
T17 sequence: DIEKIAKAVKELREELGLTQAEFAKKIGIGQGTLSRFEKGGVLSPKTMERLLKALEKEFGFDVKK

[18] = system: T18, DBP055 (synthetic construct); test: flow cytometry; conditions: 1 uM dsDNA with avidity; protein on the cell surface; protein details: yeast display (pETcon3, c-Myc); label: biotin
T18 sequence: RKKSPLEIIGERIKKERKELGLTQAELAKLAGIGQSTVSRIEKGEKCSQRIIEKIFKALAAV

[19] = system: T19, DBP056 purified (synthetic construct); test: BLI; conditions: range for all purified designs; PBS, 1% BSA, 0.05% Tween 20; purified recombinant protein; protein details: His tag; label: biotin
T19 sequence: T15 sequence

[20] = system: T20, DBP050 (synthetic construct); test: flow cytometry; conditions: 1 uM dsDNA with avidity; protein on the cell surface; protein details: yeast display (pETcon3, c-Myc); label: biotin
T20 sequence: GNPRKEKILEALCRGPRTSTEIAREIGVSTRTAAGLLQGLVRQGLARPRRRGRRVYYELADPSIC

[21] = system: T21, DBP049 (synthetic construct); test: flow cytometry; conditions: 1 uM dsDNA with avidity; protein on the cell surface; protein details: yeast display (pETcon3, c-Myc); label: biotin
T21 sequence: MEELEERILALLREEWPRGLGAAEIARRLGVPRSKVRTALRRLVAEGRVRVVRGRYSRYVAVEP

Measured: binding result

CGCGATGCTTCTCG (double strand) [target F]
binds: [1] | [2] | [3]

CGGGGAAACGCCCG (double strand) [target H]
binds: [4] | [5] | [6] | [7] | [8]

CGCTATCCAGAGCG (double strand) [target E]
binds: [9] | [10] | [11] | [12] | [13] | [14] | [15] | [16] | [17] | [18] | [19]

CGGAGGTAATGACG (double strand) [target J]
binds: [20] | [21]
